According to publication PMC6692518:
Results are given in words; binding and its absence hold for the method and conditions named. A result given as binding can be weak or reduced; the word gives no strength.

Target: T1, FlgL (HAP3), hook-associated protein of V. vulnificus MO6-24/O (Vibrio vulnificus)
T1 sequence: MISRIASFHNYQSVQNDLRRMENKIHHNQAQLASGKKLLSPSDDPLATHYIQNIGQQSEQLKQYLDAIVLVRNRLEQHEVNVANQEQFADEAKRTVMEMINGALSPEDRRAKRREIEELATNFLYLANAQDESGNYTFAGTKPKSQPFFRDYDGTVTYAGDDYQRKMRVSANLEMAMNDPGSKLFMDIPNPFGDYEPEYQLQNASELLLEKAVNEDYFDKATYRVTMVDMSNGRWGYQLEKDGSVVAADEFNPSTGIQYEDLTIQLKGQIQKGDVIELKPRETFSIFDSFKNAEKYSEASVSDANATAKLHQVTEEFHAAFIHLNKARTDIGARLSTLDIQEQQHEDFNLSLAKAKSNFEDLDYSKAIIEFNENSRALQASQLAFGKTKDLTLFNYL
Test: two-hybrid; bacterial two-hybrid (BACTH, pUT18c and pKT25) in E. coli BTH101; β-galactosidase by colour on LB-X-Gal agar with 0.5 mM IPTG and by ONPG assay (Miller units); compared with the positive (zip/zip) and negative (empty vectors) controls

Substance | binding
FlaB, flagellin subunit of V. vulnificus MO6-24/O (Vibrio vulnificus) | binds
FlaE, flagellin-homologous protein of V. vulnificus MO6-24/O (Vibrio vulnificus) | no binding
FlaF, flagellin-homologous protein of V. vulnificus MO6-24/O (Vibrio vulnificus) | no binding
